Values from PubChem BioAssay AID652259 (Drosophila RNAi Screening Center, 2013)

- Screen: 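Identify new Wingless signalling regulators in fly cells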 (primary screen)
- System: Drosophila clone 8 imaginal disc epithelial cells
- Reagent: long dsRNA against Drosophila genes
- Conditions: pathway stimulated by co-transfected Wingless expression plasmid
- Measured: 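Dual luciferase reads per well after Wingless plasmid stimulation: reporter firefly light and Renilla control light; activity is firefly divided by Renilla, a ratio not deposited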
- Scale: firefly reporter light: higher = more Wg reporter light, before normalisation; Renilla control light: higher = more transfected or surviving cells
- Call rule: 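Strong candidates differ from their plate mean by at least two out of four per-plate statistical tests; weak candidates meet just one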
- Calls: active = candidate regulator (raises or lowers reporter); inactive = not a candidate
The screen tested about 22,000 reagents; shown is an unselected part of those with a known target gene and a result. Over the whole deposit, 233 (1.1%) were called active. 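Light values are raw, unnormalised plate reads; the ratio scores behind the reporter calls were not deposited.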 Entries without a mark were called inactive. A plus sign joins genes that one reagent is predicted to hit. Not stated in the record: the amount of reagent, the time to read-out, the dose of the treatment.

| target | DRSC id | firefly reporter light, replicate 1 | firefly reporter light, replicate 2 | Renilla control light, replicate 1 | Renilla control light, replicate 2 |
| --- | --- | --- | --- | --- | --- |
| Ge-1 | DRSC02938 | 9232 | – | 1888 | – |
| CG34310 | DRSC00943 | 19544 | – | 11405 | – |
| Su(P) | DRSC11291 | 7861 | – | 3133 | – |
| Act5C | DRSC17723 | 21821 | – | 10581 | – |
| CG9813 | DRSC16569 | 7554 | – | 3430 | – |
| dare | DRSC07602 | 6346 | – | 2448 | – |
| CR31700 | DRSC03682 | 17204 | – | 9753 | – |
| CG13678 | DRSC10036 | 3869 | – | 1250 | – |
| Act88F | DRSC14105 | 14434 | – | 4027 | – |
| snoRNA:U31:54Ec + snoRNA:snR38:54Eb + snoRNA:U27:54Eb + 8 more | DRSC06458 | 6644 | – | 2987 | – |
| p23 | DRSC15158 | 8584 | – | 2675 | – |
| Gr39b | DRSC01848 | 25895 | 8.65e5 | 14290 | 3.91e5 |
| ssh | DRSC16730 | 17164 | – | 11332 | – |
| CG32544 | DRSC20033 | 22141 | – | 8535 | – |
| Pal1 + Pdrg1 | DRSC06587 | 2907 | 4813 | 800 | 2048 |
| CG3819 | DRSC10378 | 11545 | – | 2459 | – |
| CR43361 | DRSC17206 | 26186 | – | 14201 | – |
| Cpr47Ec | DRSC07332 | 8908 | – | 2993 | – |
| AstC-R1 | DRSC10799 | 5674 | – | 4056 | – |
| CG31104 | DRSC14658 | 16933 | – | 14386 | – |
| CG6830 | DRSC16124 | 13495 | – | 2872 | – |
| Mtpbeta | DRSC04663 | 13762 | – | 4181 | – |
| Brd7-9 | DRSC03017 | 8516 | – | 4103 | – |
| CG13096 | DRSC02198 | 1754 | 3108 | 818 | 2275 |
| CG4842 | DRSC10453 | 7632 | – | 3627 | – |
| mbm | DRSC00319 | 15062 | – | 4756 | – |
| brn | DRSC18746 | 2500 | 6546 | 1448 | 2203 |
| eas | DRSC20329 | 21079 | – | 9590 | – |
| CG42818 | DRSC01963 | 3736 | 6530 | 1799 | 3035 |
| Jig | DRSC14974 | 18320 | – | 4643 | – |

7 neighbouring reagents from above, quoted:
| target | DRSC id | firefly reporter light, replicate 1 | firefly reporter light, replicate 2 | Renilla control light, replicate 1 | Renilla control light, replicate 2 |
| --- | --- | --- | --- | --- | --- |
| CG34310 | DRSC00943 | 19544 | – | 11405 | – |
| Su(P) | DRSC11291 | 7861 | – | 3133 | – |
| Act5C | DRSC17723 | 21821 | – | 10581 | – |
| CG9813 | DRSC16569 | 7554 | – | 3430 | – |
| dare | DRSC07602 | 6346 | – | 2448 | – |
| CR31700 | DRSC03682 | 17204 | – | 9753 | – |
| CG13678 | DRSC10036 | 3869 | – | 1250 | – |

The results go on.
| target | DRSC id | firefly reporter light, replicate 1 | firefly reporter light, replicate 2 | Renilla control light, replicate 1 | Renilla control light, replicate 2 |
| --- | --- | --- | --- | --- | --- |
| CG5447 | DRSC15801 | 42281 | – | 33507 | – |
| CG9676 | DRSC20204 | 15780 | – | 9175 | – |
| lncRNA:CR42735 (retired record) | DRSC00921 | 16721 | – | 7334 | – |
| Galphaq | DRSC07432 | 7316 | – | 2428 | – |
| ham | DRSC01657 | 18983 | – | 9188 | – |
| ham | DRSC02070 | 2042 | 6547 | 625 | 2486 |
| ham | DRSC02512 | 4148 | 10605 | 1017 | 4242 |
| ham | DRSC02513 | 3987 | 13601 | 800 | 5088 |
| Mes2 | DRSC11593 | 3120 | – | 953 | – |
| Mes2 | DRSC11632 | 4776 | – | 1649 | – |
| CG3566 | DRSC18311 | 23169 | – | 11754 | – |
| Syx7 | DRSC11763 | 6474 | – | 3293 | – |
| Psf2 | DRSC00516 | 2680 | 6387 | 1221 | 2651 |
| mael | DRSC11894 | 7249 | – | 2614 | – |
| CG7601 | DRSC14131 | 3612 | 4308 | 1443 | 1872 |
| CG15233 | DRSC04967 | 11433 | – | 3793 | – |
| lds | DRSC16988 | 14872 | – | 3851 | – |
| GstE2 | DRSC06672 | 6833 | – | 2528 | – |
| CG31300 | DRSC14657 | 17671 | – | 14393 | – |
